In the supplement of paper PMC10689618:
This is one part of the list. Repeats are few or missing, and single values can be far off.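 Primary human fetal astrocytes engulfed labelled rat cortical synaptosomes, measured as a red/green ratio corrected for calcein live-cell signal and scaled to the plate median. Toxicity meant calcein falling over 30%; decreased phagocytosis meant below 70% of median above 5 µM.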

Experiments:
[1] = tested on: Human fetal astrocytes; assay: loss of total cells relative to no-compound high-control median (toxicity); higher = more toxic (fewer cells); conditions: 24 h
[2] = tested on: Human fetal astrocytes; assay: synaptosome phagocytosis (pHrodo/calcein intensity ratio) relative to plate median of data wells; higher = more phagocytosis; conditions: 24 h

SMILES | loss of total cells ([1]; 1.39 µM) [%] | loss of total cells ([1]; 2.78 µM) [%] | loss of total cells ([1]; 5.56 µM) [%] | loss of total cells ([1]; 11.11 µM) [%] | loss of total cells ([1]; 22.22 µM) [%] | synaptosome phagocytosis ([2]; 1.39 µM) [%] | synaptosome phagocytosis ([2]; 2.78 µM) [%] | synaptosome phagocytosis ([2]; 5.56 µM) [%] | synaptosome phagocytosis ([2]; 11.11 µM) [%] | synaptosome phagocytosis ([2]; 22.22 µM) [%]
CC(C)n1c(/C=C/C(O)CC(O)CC(=O)O)c(-c2ccc(F)cc2)c2ccccc21 (stereo not given) | -21.8 | -45.2 | 7.5 | 4.3 | 0.9 | 115 | 89.8 | 87.5 | 72.8 | 63.3
CCCC(=O)O[C@]1(C(=O)CO)CC[C@H]2[C@@H]3CCC4=CC(=O)CC[C@]4(C)[C@H]3[C@@H](O)C[C@@]21C | 17.7 | -16.7 | 12.4 | -8.2 | 25.9 | 87.5 | 114 | 102 | 66.4 | 106
Cc1ncc([N+](=O)[O-])n1CC(O)CCl (stereo not given) | -11.2 | 8.6 | 6.9 | -9 | -5.6 | 98.8 | 90.5 | 95.5 | 75.3 | 118
CC(C)[C@@H]1CC[C@@H](C)CC1=O | -14.8 | -2.5 | 2.2 | 4.1 | -4.4 | 88.7 | 98.9 | 90.7 | 98.8 | 88.9
CCCSc1ccc2[nH]c(NC(=O)OC)nc2c1 | -36.3 | 5.6 | 8.7 | 36.4 | -1.6 | 68.1 | 122 | 101 | 102 | 112
Cc1cc(O)cc(O)c1C(=O)O | 4 | 6.6 | -7.6 | 26.5 | 21.9 | 90.4 | 99.6 | 104 | 110 | 146
O=C(N/N=C/c1ccc([N+](=O)[O-])o1)c1ccc(O)cc1 | 17 | 17.7 | 14.5 | 22.2 | 25 | 76 | 95.5 | 68.9 | 86.4 | 102
CC(=O)CC(c1ccccc1)c1c(O)c2ccccc2oc1=O (stereo not given) | 5 | -11.2 | -3.5 | 3.7 | -10 | 121 | 120 | 120 | 102 | 89.9
COc1ccc2cc([C@H](C)CO)ccc2c1 | -32.3 | -13.5 | 12.4 | 31.1 | 6.5 | 115 | 101 | 118 | 135 | 122
c1ccc(CN(CC2=NCCN2)c2ccccc2)cc1 | 5 | -10.7 | 6.3 | 2.3 | 22.7 | 103 | 106 | 101 | 117 | 103
CCC(=O)O[C@]1(C(=O)CCl)[C@@H](C)C[C@H]2[C@@H]3CCC4=CC(=O)C=C[C@]4(C)[C@@]3(F)[C@@H](O)C[C@@]21C | -39.5 | 12.7 | 5.6 | 46.9 | 2.8 | 93.2 | 134 | 112 | 121 | 85.7
CC(=O)N[C@@H](Cc1c[nH]c2ccccc12)C(=O)O | 9 | 11.2 | 15.2 | -1.3 | 19.7 | 115 | 94.3 | 148 | 100 | 104
CCCC(=O)Nc1ncnc2c1ncn2[C@@H]1O[C@@H]2COP(=O)(O)O[C@H]2[C@H]1OC(=O)CCC | 15.5 | 10.5 | 10.1 | 13.8 | 13.6 | 120 | 126 | 137 | 126 | 62.6
C/C1=C2/[N-]C([C@H](CC(N)=O)[C@@]2(C)CCC(=O)NCC(C)OP(=O)([O-])OC2C(O)[C@@H](n3cnc4cc(C)c(C)cc43)O[C@@H]2CO)[C@]2(C)N=C(/C(C)=C3N=C(/C=C4N=C1[C@@H](CCC(N)=O)C\4(C)C)[C@@H](CCC(N)=O)[C@]\3(C)CC(N)=O)[C@@H](CCC(N)=O)[C@]2(C)CC(N)=O.[CH2-]C1O[C@H](n2cnc3c(N)ncnc32)[C@@H](O)[C@H]1O.[Co+3] (stereo not given in full) | 10.4 | -6.4 | -2.8 | -6.6 | -10.6 | 100 | 98.9 | 69.2 | 71 | 92.4
CCCCCCCCCCCCCCCC(=O)OCC(O)CO (stereo not given) | 1.1 | 13.3 | -1.5 | 51 | 8.5 | 93.4 | 93.3 | 86.1 | 109 | 97.3
O=c1cccc2ccc(O)c(O)c2c1O | 0.4 | 30.7 | 26.1 | 32.2 | 57.6 | 77.7 | 104 | 87.4 | 82.2 | 78.1
CC/C(=C(/CC)c1ccc(O)cc1)c1ccc(O)cc1 | 3.9 | -26.8 | -14.6 | 6.1 | -8.2 | 118 | 111 | 110 | 88.1 | 81.2
CC(=O)OCC(=O)[C@@]12OC(C)(C)O[C@@H]1C[C@H]1[C@@H]3C[C@H](F)C4=CC(=O)C=C[C@]4(C)[C@@]3(F)[C@@H](O)C[C@@]12C | 3.3 | -25.4 | -9.8 | -28 | -1.5 | 105 | 97.7 | 97.1 | 126 | 122
OC(CCN1CCCC1)(c1ccccc1)C1CCCCC1 (stereo not given) | 2.7 | -5.8 | -22.3 | 0.9 | 24.6 | 92.5 | 99.2 | 117 | 74.8 | 85.3
CCC(C)C(NC)C(=O)O (stereo not given) | -2.5 | -8.3 | -4.4 | 13.5 | 12.6 | 104 | 94.4 | 111 | 89.6 | 124
Oc1ncnc2[nH]ncc12 | 2.5 | -15.5 | 8.1 | -7.8 | 9.6 | 81.9 | 115 | 99.7 | 108 | 112

SMILES | loss of total cells ([1]; 1.39 µM) [%] | loss of total cells ([1]; 2.78 µM) [%] | loss of total cells ([1]; 5.56 µM) [%] | loss of total cells ([1]; 11.11 µM) [%] | loss of total cells ([1]; 22.22 µM) [%] | synaptosome phagocytosis ([2]; 1.39 µM) [%] | synaptosome phagocytosis ([2]; 2.78 µM) [%] | synaptosome phagocytosis ([2]; 5.56 µM) [%] | synaptosome phagocytosis ([2]; 11.11 µM) [%] | synaptosome phagocytosis ([2]; 22.22 µM) [%]
c1ccc2c(c1)CN1CCCC1=N2 | -4.9 | -9 | -3.7 | 18.9 | 34.1 | 129 | 110 | 121 | 104 | 150
NS(=O)(=O)c1cc(C(=O)O)c(NCc2ccco2)cc1Cl | -6.2 | 1.7 | -3.5 | -3.7 | 38.6 | 91.7 | 102 | 103 | 98.1 | 113
CCN(CC)CCNC(=O)COc1ccc(OC)cc1 | -44.8 | -13.1 | -2.7 | -14.1 | -3.4 | 108 | 91.2 | 83.4 | 69.8 | 102
C=C1C(=O)O[C@H]2[C@H]1CC/C(C)=C/CC[C@@]1(C)O[C@@H]21 | -20.5 | 11.2 | -7.3 | 19.6 | 11.9 | 97.6 | 85.2 | 84.1 | 108 | 65.7
O=C(O)CCCc1ccccc1 | 5.4 | 13.4 | 8.7 | 7.9 | 1.5 | 103 | 119 | 79.9 | 117 | 126
Cc1cc(O)c(C)c(O)c1C(=O)O | 0.4 | -8 | 43.5 | 36.1 | -20.4 | 90.4 | 122 | 126 | 138 | 128
CO[C@H]1/C=C/O[C@@]2(C)Oc3c(C)c(O)c4c(O)c(c(/C=N/N5CCN(C)CC5)c(O)c4c3C2=O)NC(=O)/C(C)=C\C=C\[C@H](C)[C@H](O)[C@@H](C)[C@@H](O)[C@@H](C)[C@H](OC(C)=O)[C@@H]1C | -0.3 | -28.1 | 4.9 | 11.2 | 8.8 | 104 | 131 | 118 | 123 | 95.9
OC[C@@H](O)[C@@H](O)C(O)[C@H](O)[C@@H](O)CO (stereo not given in full) | 1.1 | 2 | 35.9 | 45.8 | -1.1 | 108 | 103 | 144 | 128 | 124
CC1(C)S[C@@H]2[C@H](N3C(=O)[C@@H](c4ccccc4)NC3(C)C)C(=O)N2[C@H]1C(=O)O | 9.2 | -24.7 | 0.7 | 1.4 | 2.7 | 87.6 | 111 | 114 | 113 | 108
CC(=O)Oc1ccccc1C(=O)Oc1ccccc1C(=O)O | -13.9 | -12.6 | -3.7 | 22.3 | 6.7 | 117 | 105 | 118 | 148 | 75.7
O=C(NC(Cc1cc(=O)[nH]c2ccccc12)C(=O)O)c1ccc(Cl)cc1 (stereo not given) | -3.2 | 11.9 | 27.5 | 19.7 | 1.5 | 113 | 128 | 141 | 82.5 | 107
O=C(O)CCCCCCCC(O)C(O)CCCCCCO (stereo not given) | 11.2 | 9 | 20.3 | 10.5 | 21.2 | 106 | 129 | 99.9 | 142 | 120
Cc1ccc(S(=O)(=O)NC(=O)NN2CCCCCC2)cc1 [Tolazamide] | -16.6 | -9.5 | 15.3 | -10.9 | 11.9 | 120 | 99.3 | 99.9 | 120 | 132
C[C@]12CC[C@@H]3c4ccc(O)cc4CC[C@H]3[C@@H]1CC[C@@H]2O | -0.9 | -29.5 | -11.1 | 6.6 | -8.8 | 72.9 | 74.7 | 83.7 | 82.9 | 66
Cc1c(S(=O)(=O)O)oc2c1C(=O)C(=O)c1c-2ccc2c1CCCC2(C)C | -13.9 | -2.5 | 6.6 | 18.2 | 22.2 | 105 | 94.6 | 122 | 116 | 121
CC(=O)Oc1ccc(C(c2ccc(OC(C)=O)cc2)c2ccccn2)cc1 | -16.6 | -2.7 | 0.3 | -31.3 | 18.7 | 115 | 112 | 103 | 144 | 105
COc1ccc2cc3[n+](cc2c1OC)CCc1cc2c(cc1-3)OCO2 | 16.2 | 14.1 | 6.5 | 0.4 | 31.8 | 103 | 103 | 114 | 60.8 | 98.2
CC(C)CCCC(C)C1CCC2C3CCC4CCCCC4(C)C3CCC12C (stereo not given) | -13.4 | -2.7 | -7.6 | 30.3 | 8.5 | 105 | 84 | 106 | 91.4 | 109
CC(C(=O)O)c1ccc2c(c1)[nH]c1ccc(Cl)cc12 (stereo not given) | -4.1 | -5.8 | 5.1 | 5.5 | 16.4 | 75.3 | 110 | 114 | 117 | 134
CC(=O)N(O)CCCCCNC(=O)CCC(=O)N(O)CCCCCNC(=O)CCC(=O)N(O)CCCCCN | -6.2 | -21.4 | -17.4 | -16.4 | 7.6 | 86.5 | 98.9 | 102 | 60.7 | 76.4

Laid out differently: results already given
SMILES	loss of total cells ([1]; 1.39 µM) [%]	loss of total cells ([1]; 2.78 µM) [%]	loss of total cells ([1]; 5.56 µM) [%]	loss of total cells ([1]; 11.11 µM) [%]	loss of total cells ([1]; 22.22 µM) [%]	synaptosome phagocytosis ([2]; 1.39 µM) [%]	synaptosome phagocytosis ([2]; 2.78 µM) [%]	synaptosome phagocytosis ([2]; 5.56 µM) [%]	synaptosome phagocytosis ([2]; 11.11 µM) [%]	synaptosome phagocytosis ([2]; 22.22 µM) [%]
Cc1ccc(S(=O)(=O)NC(=O)NN2CCCCCC2)cc1 [Tolazamide]	-16.6	-9.5	15.3	-10.9	11.9	120	99.3	99.9	120	132
C[C@]12CC[C@@H]3c4ccc(O)cc4CC[C@H]3[C@@H]1CC[C@@H]2O	-0.9	-29.5	-11.1	6.6	-8.8	72.9	74.7	83.7	82.9	66
